Experimental data from the supplement of paper PMC10849652.
The other results are listed elsewhere or left out.

Protein sequences, listed by entry. Tags and fused reporters are not part of them. Lines headed by an entry give the natural chain unless they say otherwise; changes in a name come on top.
UniProt Q9BRT3: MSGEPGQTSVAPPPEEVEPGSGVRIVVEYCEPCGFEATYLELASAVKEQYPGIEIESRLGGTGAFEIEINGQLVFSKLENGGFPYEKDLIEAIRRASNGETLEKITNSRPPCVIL
UniProt P10620: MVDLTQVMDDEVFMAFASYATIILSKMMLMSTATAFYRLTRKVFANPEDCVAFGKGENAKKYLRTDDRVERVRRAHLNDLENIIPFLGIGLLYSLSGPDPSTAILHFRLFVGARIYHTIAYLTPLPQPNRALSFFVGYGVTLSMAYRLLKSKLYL
UniProt P26572: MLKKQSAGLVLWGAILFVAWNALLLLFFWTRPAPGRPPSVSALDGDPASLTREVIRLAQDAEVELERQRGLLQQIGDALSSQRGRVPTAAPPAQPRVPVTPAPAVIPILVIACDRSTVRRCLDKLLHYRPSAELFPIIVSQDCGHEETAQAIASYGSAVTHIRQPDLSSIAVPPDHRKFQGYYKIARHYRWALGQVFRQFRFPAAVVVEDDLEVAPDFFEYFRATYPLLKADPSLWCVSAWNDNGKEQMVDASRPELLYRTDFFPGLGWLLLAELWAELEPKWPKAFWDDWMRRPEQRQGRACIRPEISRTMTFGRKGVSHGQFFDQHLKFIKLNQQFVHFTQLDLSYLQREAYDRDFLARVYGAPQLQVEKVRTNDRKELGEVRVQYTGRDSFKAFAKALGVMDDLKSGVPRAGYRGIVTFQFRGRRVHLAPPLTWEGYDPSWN
UniProt Q96BX8: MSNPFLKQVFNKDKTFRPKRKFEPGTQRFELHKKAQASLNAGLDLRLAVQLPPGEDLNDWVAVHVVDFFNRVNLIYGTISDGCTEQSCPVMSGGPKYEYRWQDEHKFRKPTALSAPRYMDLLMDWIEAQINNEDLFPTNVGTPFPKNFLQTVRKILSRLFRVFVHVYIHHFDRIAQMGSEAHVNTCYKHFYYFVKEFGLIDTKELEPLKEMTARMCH
UniProt Q9UH92: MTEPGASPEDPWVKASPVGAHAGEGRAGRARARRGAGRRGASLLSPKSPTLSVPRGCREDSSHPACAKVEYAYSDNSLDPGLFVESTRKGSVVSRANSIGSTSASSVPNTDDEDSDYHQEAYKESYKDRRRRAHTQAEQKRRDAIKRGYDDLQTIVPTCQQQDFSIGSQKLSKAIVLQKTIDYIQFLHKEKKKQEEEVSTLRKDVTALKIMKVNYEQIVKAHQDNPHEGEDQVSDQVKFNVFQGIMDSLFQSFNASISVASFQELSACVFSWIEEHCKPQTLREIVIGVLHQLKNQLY
UniProt Q96EN8: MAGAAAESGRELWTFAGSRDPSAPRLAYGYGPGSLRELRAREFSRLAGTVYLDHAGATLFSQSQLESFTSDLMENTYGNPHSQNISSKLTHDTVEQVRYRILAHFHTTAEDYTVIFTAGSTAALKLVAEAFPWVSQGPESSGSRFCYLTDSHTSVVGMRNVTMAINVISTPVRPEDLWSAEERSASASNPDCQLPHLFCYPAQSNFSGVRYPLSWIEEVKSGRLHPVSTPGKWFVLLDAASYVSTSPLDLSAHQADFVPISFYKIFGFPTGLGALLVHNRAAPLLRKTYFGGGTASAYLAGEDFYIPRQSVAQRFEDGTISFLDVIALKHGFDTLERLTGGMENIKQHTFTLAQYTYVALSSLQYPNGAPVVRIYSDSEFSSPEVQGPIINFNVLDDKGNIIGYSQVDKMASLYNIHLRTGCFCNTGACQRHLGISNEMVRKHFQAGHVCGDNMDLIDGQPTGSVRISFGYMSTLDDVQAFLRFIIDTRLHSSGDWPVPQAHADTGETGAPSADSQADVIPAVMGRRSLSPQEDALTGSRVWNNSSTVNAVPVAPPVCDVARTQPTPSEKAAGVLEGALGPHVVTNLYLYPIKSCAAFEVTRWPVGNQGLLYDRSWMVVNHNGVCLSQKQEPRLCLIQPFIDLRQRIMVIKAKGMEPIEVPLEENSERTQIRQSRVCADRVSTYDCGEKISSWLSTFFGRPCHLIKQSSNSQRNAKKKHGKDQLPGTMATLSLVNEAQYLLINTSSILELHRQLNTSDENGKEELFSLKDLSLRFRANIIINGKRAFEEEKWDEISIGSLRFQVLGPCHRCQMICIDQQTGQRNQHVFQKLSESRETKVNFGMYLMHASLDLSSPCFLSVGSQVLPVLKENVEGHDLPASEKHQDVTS
UniProt P29372, whole entry, looked up: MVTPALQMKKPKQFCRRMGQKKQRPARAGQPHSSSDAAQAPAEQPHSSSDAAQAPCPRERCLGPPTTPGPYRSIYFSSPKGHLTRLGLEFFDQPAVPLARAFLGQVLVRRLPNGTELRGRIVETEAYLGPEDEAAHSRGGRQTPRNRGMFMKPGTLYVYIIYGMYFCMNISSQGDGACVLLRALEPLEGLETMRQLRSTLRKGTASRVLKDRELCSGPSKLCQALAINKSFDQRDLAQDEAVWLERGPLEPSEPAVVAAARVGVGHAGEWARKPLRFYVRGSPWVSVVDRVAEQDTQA
UniProt Q86VX9: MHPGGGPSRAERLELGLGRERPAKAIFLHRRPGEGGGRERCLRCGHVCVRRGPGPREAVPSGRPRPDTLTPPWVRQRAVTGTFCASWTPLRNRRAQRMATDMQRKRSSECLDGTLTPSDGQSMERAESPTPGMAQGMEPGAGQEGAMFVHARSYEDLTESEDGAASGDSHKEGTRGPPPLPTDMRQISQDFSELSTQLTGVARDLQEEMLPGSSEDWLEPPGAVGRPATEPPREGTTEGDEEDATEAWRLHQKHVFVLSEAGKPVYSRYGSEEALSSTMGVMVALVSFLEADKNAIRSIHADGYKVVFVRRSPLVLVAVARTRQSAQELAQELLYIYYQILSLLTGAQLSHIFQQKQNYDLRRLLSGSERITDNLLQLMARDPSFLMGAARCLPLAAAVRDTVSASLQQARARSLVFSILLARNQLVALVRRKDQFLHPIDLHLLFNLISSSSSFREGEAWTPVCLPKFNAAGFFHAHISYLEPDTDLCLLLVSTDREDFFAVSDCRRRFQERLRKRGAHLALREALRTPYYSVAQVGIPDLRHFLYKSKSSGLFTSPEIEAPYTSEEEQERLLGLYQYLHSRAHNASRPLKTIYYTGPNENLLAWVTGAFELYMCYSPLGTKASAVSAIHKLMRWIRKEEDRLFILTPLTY
UniProt Q9NZW5: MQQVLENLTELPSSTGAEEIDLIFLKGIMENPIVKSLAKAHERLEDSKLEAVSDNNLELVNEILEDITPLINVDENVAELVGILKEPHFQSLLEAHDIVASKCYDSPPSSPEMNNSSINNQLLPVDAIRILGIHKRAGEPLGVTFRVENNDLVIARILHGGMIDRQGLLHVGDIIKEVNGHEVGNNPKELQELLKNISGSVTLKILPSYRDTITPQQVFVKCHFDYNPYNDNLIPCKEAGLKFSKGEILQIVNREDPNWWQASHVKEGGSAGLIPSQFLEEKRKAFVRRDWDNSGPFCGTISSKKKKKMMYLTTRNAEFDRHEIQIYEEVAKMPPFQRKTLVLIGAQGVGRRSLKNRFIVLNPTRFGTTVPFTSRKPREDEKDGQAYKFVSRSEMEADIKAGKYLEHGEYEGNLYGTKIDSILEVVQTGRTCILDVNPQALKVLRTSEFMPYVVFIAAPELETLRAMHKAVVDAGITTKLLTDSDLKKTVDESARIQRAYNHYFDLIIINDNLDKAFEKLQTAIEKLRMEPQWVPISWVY
UniProt Q96EY8: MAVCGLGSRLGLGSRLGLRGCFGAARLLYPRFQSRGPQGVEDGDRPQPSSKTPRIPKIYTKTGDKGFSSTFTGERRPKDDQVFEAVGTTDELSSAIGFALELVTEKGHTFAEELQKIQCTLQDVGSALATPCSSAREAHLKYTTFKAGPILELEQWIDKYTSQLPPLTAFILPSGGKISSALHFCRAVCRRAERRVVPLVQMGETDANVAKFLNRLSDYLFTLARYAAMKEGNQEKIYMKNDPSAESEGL
UniProt O00566: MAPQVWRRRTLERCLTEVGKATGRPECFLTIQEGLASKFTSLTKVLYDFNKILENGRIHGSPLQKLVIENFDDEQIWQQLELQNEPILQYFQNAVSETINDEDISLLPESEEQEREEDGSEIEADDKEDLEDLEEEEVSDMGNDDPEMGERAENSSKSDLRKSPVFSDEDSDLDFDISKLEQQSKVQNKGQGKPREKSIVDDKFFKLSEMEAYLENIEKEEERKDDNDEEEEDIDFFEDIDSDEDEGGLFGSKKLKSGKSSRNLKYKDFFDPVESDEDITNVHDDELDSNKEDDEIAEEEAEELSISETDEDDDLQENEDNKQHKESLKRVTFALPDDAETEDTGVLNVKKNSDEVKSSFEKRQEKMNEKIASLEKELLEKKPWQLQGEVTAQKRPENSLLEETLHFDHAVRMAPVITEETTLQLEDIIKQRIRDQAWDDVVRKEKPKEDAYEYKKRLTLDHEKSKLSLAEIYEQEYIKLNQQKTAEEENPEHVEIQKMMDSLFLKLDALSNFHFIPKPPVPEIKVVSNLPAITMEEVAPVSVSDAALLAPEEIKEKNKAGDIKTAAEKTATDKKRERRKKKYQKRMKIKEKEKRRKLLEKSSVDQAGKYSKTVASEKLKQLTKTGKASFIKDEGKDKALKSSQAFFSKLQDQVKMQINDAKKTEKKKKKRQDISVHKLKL
UniProt Q9NXC5: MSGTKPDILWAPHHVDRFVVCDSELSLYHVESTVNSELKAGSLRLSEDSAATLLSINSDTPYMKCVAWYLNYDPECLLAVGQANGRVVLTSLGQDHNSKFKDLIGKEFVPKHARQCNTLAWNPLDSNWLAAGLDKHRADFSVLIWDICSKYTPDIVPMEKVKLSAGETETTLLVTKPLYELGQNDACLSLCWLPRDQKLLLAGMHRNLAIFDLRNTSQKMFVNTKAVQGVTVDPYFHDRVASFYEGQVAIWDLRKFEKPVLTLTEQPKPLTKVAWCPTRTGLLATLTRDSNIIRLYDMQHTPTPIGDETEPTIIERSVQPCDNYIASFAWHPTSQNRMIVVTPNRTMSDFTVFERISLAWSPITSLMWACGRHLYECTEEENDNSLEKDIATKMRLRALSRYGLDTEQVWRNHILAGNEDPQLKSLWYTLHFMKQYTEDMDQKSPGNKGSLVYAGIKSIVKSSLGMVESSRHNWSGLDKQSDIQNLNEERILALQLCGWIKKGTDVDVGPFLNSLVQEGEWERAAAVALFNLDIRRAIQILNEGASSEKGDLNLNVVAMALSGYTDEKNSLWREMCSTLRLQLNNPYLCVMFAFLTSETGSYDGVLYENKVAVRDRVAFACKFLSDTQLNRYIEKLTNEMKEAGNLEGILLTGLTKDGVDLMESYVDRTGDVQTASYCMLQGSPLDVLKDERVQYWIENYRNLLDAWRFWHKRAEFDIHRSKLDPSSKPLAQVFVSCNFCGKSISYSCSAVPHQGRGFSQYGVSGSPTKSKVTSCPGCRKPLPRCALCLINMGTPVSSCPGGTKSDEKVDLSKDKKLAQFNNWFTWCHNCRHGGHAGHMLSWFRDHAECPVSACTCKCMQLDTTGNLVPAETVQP
UniProt P34949: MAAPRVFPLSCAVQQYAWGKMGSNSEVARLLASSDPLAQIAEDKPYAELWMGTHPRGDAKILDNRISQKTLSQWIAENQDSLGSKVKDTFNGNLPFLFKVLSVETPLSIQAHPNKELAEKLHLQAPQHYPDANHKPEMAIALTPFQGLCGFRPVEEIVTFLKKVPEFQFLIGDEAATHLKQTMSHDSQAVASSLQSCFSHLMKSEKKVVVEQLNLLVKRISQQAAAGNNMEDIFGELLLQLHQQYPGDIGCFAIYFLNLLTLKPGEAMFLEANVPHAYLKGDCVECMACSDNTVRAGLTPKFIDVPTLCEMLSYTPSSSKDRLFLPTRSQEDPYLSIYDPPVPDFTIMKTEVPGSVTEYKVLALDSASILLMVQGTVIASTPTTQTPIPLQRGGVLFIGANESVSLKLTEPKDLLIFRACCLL
UniProt P25325: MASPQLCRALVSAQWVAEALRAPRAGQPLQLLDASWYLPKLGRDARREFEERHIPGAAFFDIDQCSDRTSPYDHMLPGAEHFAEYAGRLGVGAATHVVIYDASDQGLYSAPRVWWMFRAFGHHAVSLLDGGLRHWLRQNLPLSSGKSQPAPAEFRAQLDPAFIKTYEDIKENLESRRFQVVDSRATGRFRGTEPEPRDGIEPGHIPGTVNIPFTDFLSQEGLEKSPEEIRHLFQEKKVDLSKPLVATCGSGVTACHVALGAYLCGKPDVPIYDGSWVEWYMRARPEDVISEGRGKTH
UniProt Q9BUB5: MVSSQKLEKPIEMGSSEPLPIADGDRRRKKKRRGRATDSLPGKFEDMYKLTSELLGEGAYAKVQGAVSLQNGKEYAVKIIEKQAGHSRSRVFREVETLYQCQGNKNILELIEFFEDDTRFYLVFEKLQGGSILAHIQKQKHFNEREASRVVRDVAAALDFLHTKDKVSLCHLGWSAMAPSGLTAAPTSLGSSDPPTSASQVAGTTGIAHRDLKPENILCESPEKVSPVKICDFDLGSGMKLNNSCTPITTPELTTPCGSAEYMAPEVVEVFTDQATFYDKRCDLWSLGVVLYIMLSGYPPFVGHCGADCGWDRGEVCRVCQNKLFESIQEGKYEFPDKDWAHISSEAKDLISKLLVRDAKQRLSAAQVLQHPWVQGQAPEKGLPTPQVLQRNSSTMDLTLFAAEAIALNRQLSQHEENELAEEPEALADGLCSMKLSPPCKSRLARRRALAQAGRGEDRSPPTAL

What was measured:
Test in all cases: log2 fold change, soluble protein after heating vs DMSO (PISA); higher = thermal stabilisation; K562 lysate, 10 uM; active = over 0.2 and 3.5 SD of the protein, either way, in both replicates (recomputed)
alvocidib = compound: CN1CC[C@H](c2c(O)cc(O)c3c(=O)cc(-c4ccccc4Cl)oc23)[C@H](O)C1 [alvocidib]
Summary of the method: (§1)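 Following dounce homogenisation of K562 pellets in PBS pH 7.4 with 1 mM MgCl2, crude extract at 1 mg/mL protein was incubated for 30 min with 10 μM compound. Aliquots were then heated for 3 min over 48°C-58°C and pooled, NP-40 was added to 0.5% at 4°C, and soluble protein was recovered as the supernatant at 21,000xg for 90 min. Channel-sum-equalised TMTpro 16plex LC-MS/MS quantified this protein. Each value, from duplicates, is a log-two fold change in thermal stability relative to solvent controls.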

Tubastatin A = compound: CN1CCc2c(c3ccccc3n2Cc2ccc(C(=O)NO)cc2)C1 [Tubastatin A]
Summary of the method: as §1

[1] = compound: CNC(=O)C1=CC=CC=C1NC2=NC(=NC=C2Cl)NC3=C(C=C(C=C3)N4CCOCC4)OC
Summary of the method: as §1

defactinib = compound: CNC(=O)c1ccc(Nc2ncc(C(F)(F)F)c(NCc3nccnc3N(C)S(C)(=O)=O)n2)cc1 [defactinib]
Summary of the method: as §1

[2] = compound: CNc1nc(-c2ccc3c(N)n[nH]c3c2)cc(N2C[C@@H](C(=O)NC3CCCCC3)CC[C@H]2C)n1
Summary of the method: as §1

encorafenib = compound: COC(=O)N[C@@H](C)CNc1nccc(-c2cn(C(C)C)nc2-c2cc(Cl)cc(NS(C)(=O)=O)c2F)n1 [encorafenib]
Summary of the method: as §1

[3] = compound: COC(=O)[C@H](CCSC)NC(=O)C1=C(C=C(C=C1)NC[C@H](CS)N)C2=CC=CC=C2
Summary of the method: as §1

alisertib = compound: COc1cc(Nc2ncc3c(n2)-c2ccc(Cl)cc2C(c2c(F)cccc2OC)=NC3)ccc1C(=O)O [alisertib]
Summary of the method: as §1

[4] = compound: COc1cc2nc(-c3cc(F)ccc3O)nc(N[C@@H]3CNC[C@H]3C(C)(C)O)c2cc1OC
Summary of the method: as §1

gefitinib = compound: COc1cc2ncnc(Nc3ccc(F)c(Cl)c3)c2cc1OCCCN1CCOCC1 [gefitinib]
Summary of the method: as §1

Target	log2 fold change (alvocidib)	log2 fold change (Tubastatin A)	log2 fold change [1]	log2 fold change (defactinib)	log2 fold change [2]	log2 fold change (encorafenib)	log2 fold change [3]	log2 fold change (alisertib)	log2 fold change [4]	log2 fold change (gefitinib)
MICB, A0A140T979	inactive: 0.01	inactive: -0.005	inactive: -0.09	inactive: 0.021	inactive: 0.084	inactive: -0.027	active: -0.506	inactive: -0.043	active: 0.804	inactive: -0.012
MRPL19 (UniProt P49406)	inactive: -0.056	inactive: -0.119	inactive: -0.036	inactive: -0.005	inactive: -0.052	inactive: -0.003	inactive: 0.042	inactive: 0.037	inactive: -0.03	inactive: 0.043
MIEN1 (UniProt Q9BRT3)	inactive: 0.072	inactive: 0.073	inactive: 0.03	inactive: 0.028	inactive: 0.035	inactive: -0.014	inactive: -0.016	inactive: 0.005	inactive: -0.08	inactive: -0.039
MGAT2 (UniProt Q10469)	inactive: 0.01	inactive: 0.059	inactive: 0.014	inactive: 0.018	inactive: 0.092	inactive: 0.016	inactive: -0.008	inactive: 0.041	inactive: -0.068	inactive: -0.059
MGST1 (UniProt P10620)	inactive: 0.033	inactive: -0.011	inactive: 0.07	inactive: 0.02	inactive: 0.038	inactive: 0.007	inactive: 0.001	inactive: 0.009	inactive: 0.023	inactive: -0.066
MGAT1 (UniProt P26572)	inactive: -0.044	inactive: 0.025	inactive: -0.068	inactive: 0.058	inactive: -0.224	inactive: 0.011	inactive: 0.081	inactive: 0.049	inactive: -0.079	inactive: -0.028
MOB3A (UniProt Q96BX8)	inactive: 0.021	inactive: -0.021	inactive: 0.064	inactive: -0.036	inactive: -0.002	inactive: 0.059	inactive: -0.075	inactive: -0.014	inactive: -0.029	inactive: 0.015
MOSPD2 (UniProt Q8NHP6)	inactive: -0.028	inactive: -0.034	inactive: -0.03	inactive: 0.11	inactive: -0.015	inactive: 0.053	inactive: -0.026	inactive: 0.125	inactive: -0.027	inactive: -0.039
MINPP1 (UniProt Q9UNW1)	inactive: 0.033	inactive: 0.013	inactive: 0.011	inactive: 0.026	inactive: -0.073	inactive: 0.007	inactive: -0.029	inactive: -0.012	inactive: 0.014	inactive: 0.016
MRPL21 (UniProt Q7Z2W9)	inactive: -0.023	inactive: 0.061	inactive: -0.032	inactive: 0.044	inactive: -0.033	inactive: -0.001	inactive: 0.017	inactive: 0.014	inactive: 0.009	inactive: -0.02
MRM1 (UniProt Q6IN84)	inactive: -0.021	inactive: 0.074	inactive: -0.003	inactive: -0.007	inactive: 0.189	inactive: 0.041	inactive: 0.056	inactive: -0.003	inactive: 0.105	inactive: 0.052
MLX (UniProt Q9UH92)	inactive: 0.007	inactive: -0.091	inactive: -0.007	inactive: -0.061	inactive: 0.01	inactive: 0.052	inactive: 0.07	inactive: 0.086	inactive: 0.044	inactive: 0.044
MICALL2 (UniProt Q8IY33)	inactive: -0.011	inactive: -0.001	inactive: 0.055	inactive: -0.024	inactive: 0.01	inactive: 0.026	inactive: -0.069	inactive: -0.03	inactive: 0.024	inactive: 0.037
MOCOS (UniProt Q96EN8)	inactive: 0.009	inactive: -0.026	inactive: 0.018	inactive: 0.095	inactive: 0.058	inactive: -0.046	inactive: -0.023	inactive: 0.007	inactive: 0.005	inactive: -0.027
MIB1 (UniProt Q86YT6)	inactive: -0.074	inactive: 0.031	inactive: 0.006	inactive: -0.034	inactive: -0.002	inactive: 0.026	inactive: 0.028	inactive: -0.021	inactive: 0.134	inactive: -0.086
MPG (UniProt P29372)	inactive: -0.021	inactive: -0.063	inactive: -0.017	inactive: -0.008	inactive: 0.072	inactive: -0.014	inactive: 0.075	inactive: -0.048	inactive: 0.023	inactive: 0.014
MON1A (UniProt Q86VX9)	inactive: -0.09	inactive: -0.058	inactive: -0.021	inactive: 0.015	inactive: -0.038	inactive: 0.012	inactive: -0.344	inactive: -0.022	inactive: 0.082	inactive: -0.035
MON2 isoform 5 (UniProt Q7Z3U7)	inactive: 0.003	inactive: -0.149	inactive: 0.018	inactive: 0.023	inactive: -0.014	inactive: 0.034	inactive: -0.035	inactive: -0.004	inactive: 0	inactive: 0.005
MPP6 (UniProt Q9NZW5)	inactive: 0.033	inactive: -0.026	inactive: 0.027	inactive: -0.011	inactive: 0.028	inactive: -0.01	inactive: -0.027	inactive: 0.016	inactive: -0.036	inactive: -0.006
MMAB (UniProt Q96EY8)	inactive: 0.013	inactive: 0.064	inactive: -0.003	inactive: 0.029	inactive: 0.087	inactive: 0	inactive: -0.06	inactive: -0.058	inactive: -0.006	inactive: -0.042
MPHOSPH10 (UniProt O00566)	inactive: 0.052	inactive: -0.068	inactive: 0.044	inactive: 0.035	inactive: -0.055	inactive: -0.012	inactive: 0.041	inactive: 0.049	inactive: -0.037	inactive: -0.004
MIOS (UniProt Q9NXC5)	inactive: -0.023	inactive: -0.036	inactive: -0.018	inactive: -0.003	inactive: -0.029	inactive: 0.015	inactive: -0.021	inactive: 0.006	inactive: 0.007	inactive: 0.043
MPI (UniProt P34949)	inactive: 0.051	inactive: 0.024	inactive: -0.02	inactive: -0.007	inactive: 0.035	inactive: -0.01	active: 0.477	inactive: 0.018	inactive: 0.01	inactive: -0.014
MIF (UniProt P14174)	inactive: -0.109	active: 0.545	inactive: 0.103	inactive: -0.05	inactive: -0.145	inactive: -0.028	inactive: -0.013	inactive: 0.005	inactive: -0.006	inactive: 0.068
MPST isoform 2 (UniProt P25325)	inactive: 0.019	inactive: -0.031	inactive: 0.045	inactive: -0.002	inactive: -0.018	inactive: 0.004	inactive: 0.062	inactive: -0.003	inactive: -0.008	inactive: -0.017
MRPL20 (UniProt Q9BYC9)	inactive: -0.047	inactive: 0.059	inactive: 0.063	inactive: -0.04	inactive: 0.092	inactive: 0.004	inactive: 0.03	inactive: 0.006	inactive: -0.102	inactive: 0.001
MGA (UniProt Q8IWI9)	inactive: -0.083	inactive: 0.031	inactive: 0	inactive: -0.049	inactive: 0.12	inactive: 0.055	inactive: -0.068	inactive: -0.156	inactive: 0.094	inactive: 0.061
MKNK1 (UniProt Q9BUB5)	inactive: 0.021	inactive: -0.023	inactive: 0.049	inactive: -0.053	inactive: 0.009	inactive: 0.054	inactive: -0.022	inactive: 0.022	inactive: 0.015	inactive: 0.134

As entered above.
Entry for MLX (UniProt Q9UH92) under log2 fold change (defactinib): inactive: -0.061
Entry for MRPL20 (UniProt Q9BYC9) under log2 fold change [1]: inactive: 0.063
